Test results published in patent US20020006942A1, “Methods of treating liver disorders and disorders associated with liver function” (priority 2000, published 2002).
At least one compound was matched to its structure with a doubt left.

Legend:
[1] = tested on: cytokine mRNAs (TNFα, TGF-β1, IL1β) in THP-1 cells; test: Cytokine mRNA expression by THP-1 cells (RNase protection assay); format: cell-based, human; settings: 48 h
Excerpt: Hepatic cytokine mRNAs were quantitated using RNase protection assays, as follows. In vitro transcribed [α-^32P]-UTP labeled -antisense cytokine probes were generated using cytokine multi-probe template kits: Mouse mCK-2 (catalog # 45002P) and Mouse mCK-3 (catalog #45003P) (PharMingen International) and a MAXIscript in vitro transcription kit (catalog #1314) using T7 RNA polymerase per manufacturer instructions. The radiolabeled probes were eluted through G25 Sephadex columns (Boehringer Mannheim) to remove unincorporated nucleotides. RNase protection assays were performed with HybSpeed RPA kits (catalog #1412) (Ambion Inc.) according to the manufacturers specifications. For each reaction, 20 fig of total RNA was hybridized to approximately 50,000 cpm of the antisense cytokine probes and digested with a mixture of RNase A and RNase T1. The protected RNA fragments were separated via a 5% denaturing acrylamide gel. PhosporImager (Molecular Dynamics) analysis was used to visualize the protected RNA fragments. […] Cells were harvested and polyA mRNA extracted, as described above. The content of human cytokines mRNAs were quantited by RNase protection assays, as described above except human template kits were used (Human hCK-2-catalog # 45032P and Human hCK-3-catalog # 45033P) (PharMingen International).

[2] = Plasma HDL cholesterol in C57BL/6 mice on chow or bile acid-containing atherogenic diet; format: in vivo, mouse
hepatic CYP7A1 mRNA = test: Hepatic CYP7A1 mRNA relative to GAPDH in C57BL/6 mice on chow or bile acid-containing atherogenic diet; format: in vivo, mouse; settings: mice fed bile acid-containing atherogenic diet, 1 mg/ml daily by oral gavage

| SMILES | induction of cytokine expression by THP-1 cells ([1]; 100 μM) | effect on CDCA induction of cytokine mRNAs expression by THP-1 cells ([1]; 500 nM rosiglitazone with 100 μM CDCA) | diet-induced decrease in HDL ([2]; mice fed bile acid-containing atherogenic diet) | plasma HDL cholesterol levels ([2]; mice fed the chow diet) | repression of CYP7A1 by the diet (hepatic CYP7A1 mRNA) |
| --- | --- | --- | --- | --- | --- |
| C[C@H](CCC(=O)O)[C@H]1CC[C@H]2[C@@H]3[C@@H](O)C[C@@H]4C[C@H](O)CC[C@]4(C)[C@H]3CC[C@]12C [UDCA, ursodeoxycholic acid] | did not induce | – | – | – | – |
| CN(CCOc1ccc(CC2SC(=O)NC2=O)cc1)c1ccccn1 (centres unmarked) [rosiglitazone] | – | completely blocked | prevented most of the diet-induced decrease | did not affect | blocked repression |
